We go through 6 molecules from patent US6767720.

Amino acid sequences for entries named in this document (tags omitted). A change or cut given only in a name is not applied to a line headed by its entry.
UniProt P04386: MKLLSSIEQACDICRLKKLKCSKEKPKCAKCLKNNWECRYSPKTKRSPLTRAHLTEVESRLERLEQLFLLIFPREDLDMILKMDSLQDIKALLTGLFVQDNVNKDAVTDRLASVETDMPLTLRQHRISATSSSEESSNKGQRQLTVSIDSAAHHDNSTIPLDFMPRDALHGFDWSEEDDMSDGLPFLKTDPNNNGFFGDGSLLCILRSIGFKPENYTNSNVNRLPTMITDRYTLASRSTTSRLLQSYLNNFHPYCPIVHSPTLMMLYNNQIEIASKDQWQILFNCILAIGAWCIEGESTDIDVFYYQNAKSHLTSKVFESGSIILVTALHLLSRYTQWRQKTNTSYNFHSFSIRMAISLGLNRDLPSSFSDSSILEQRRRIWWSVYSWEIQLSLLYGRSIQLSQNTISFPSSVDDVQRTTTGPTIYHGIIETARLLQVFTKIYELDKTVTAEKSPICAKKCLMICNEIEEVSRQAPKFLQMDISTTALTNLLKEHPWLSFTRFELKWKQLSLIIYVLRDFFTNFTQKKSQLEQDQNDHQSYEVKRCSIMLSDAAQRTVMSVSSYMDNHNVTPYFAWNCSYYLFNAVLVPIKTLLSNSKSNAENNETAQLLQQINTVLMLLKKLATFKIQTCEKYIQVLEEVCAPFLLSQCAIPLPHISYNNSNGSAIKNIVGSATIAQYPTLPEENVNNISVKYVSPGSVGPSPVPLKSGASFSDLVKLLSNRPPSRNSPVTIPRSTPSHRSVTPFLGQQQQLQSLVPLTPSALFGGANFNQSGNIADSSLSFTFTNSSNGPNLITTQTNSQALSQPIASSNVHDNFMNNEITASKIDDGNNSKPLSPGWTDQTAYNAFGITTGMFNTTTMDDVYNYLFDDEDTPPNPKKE

For experiment [1], the target named is αN-catenin residues 4-535 fused to the GAL4-DBD (plasmid pGBT9ANCTN(EcoRI-PstI)) (human) (UniProt P04386+P26232). Briefly: yeast two-hybrid (FIG. 4).
Experiment [2] concerns the target T1, human αN-catenin fused to the GAL4-DBD in pGBT9 (plasmid pGBT9ANCTN) (human) (UniProt P04386+P26232). Briefly: yeast two-hybrid retransformation, strain HF7c, HIS3 and LacZ reporters.
Experiment [3] deals with T1, human αN-catenin fused to the GAL4-DBD in pGBT9 (plasmid pGBT9ANCTN) (human). Briefly: yeast two-hybrid, strain Y190 (FIG. 11).
For experiment [4], the target named is T2, human αN-catenin expressed from plasmid pPNhANCTN in HEK293T cells (human) (UniProt P26232).
T2 sequence (looked up): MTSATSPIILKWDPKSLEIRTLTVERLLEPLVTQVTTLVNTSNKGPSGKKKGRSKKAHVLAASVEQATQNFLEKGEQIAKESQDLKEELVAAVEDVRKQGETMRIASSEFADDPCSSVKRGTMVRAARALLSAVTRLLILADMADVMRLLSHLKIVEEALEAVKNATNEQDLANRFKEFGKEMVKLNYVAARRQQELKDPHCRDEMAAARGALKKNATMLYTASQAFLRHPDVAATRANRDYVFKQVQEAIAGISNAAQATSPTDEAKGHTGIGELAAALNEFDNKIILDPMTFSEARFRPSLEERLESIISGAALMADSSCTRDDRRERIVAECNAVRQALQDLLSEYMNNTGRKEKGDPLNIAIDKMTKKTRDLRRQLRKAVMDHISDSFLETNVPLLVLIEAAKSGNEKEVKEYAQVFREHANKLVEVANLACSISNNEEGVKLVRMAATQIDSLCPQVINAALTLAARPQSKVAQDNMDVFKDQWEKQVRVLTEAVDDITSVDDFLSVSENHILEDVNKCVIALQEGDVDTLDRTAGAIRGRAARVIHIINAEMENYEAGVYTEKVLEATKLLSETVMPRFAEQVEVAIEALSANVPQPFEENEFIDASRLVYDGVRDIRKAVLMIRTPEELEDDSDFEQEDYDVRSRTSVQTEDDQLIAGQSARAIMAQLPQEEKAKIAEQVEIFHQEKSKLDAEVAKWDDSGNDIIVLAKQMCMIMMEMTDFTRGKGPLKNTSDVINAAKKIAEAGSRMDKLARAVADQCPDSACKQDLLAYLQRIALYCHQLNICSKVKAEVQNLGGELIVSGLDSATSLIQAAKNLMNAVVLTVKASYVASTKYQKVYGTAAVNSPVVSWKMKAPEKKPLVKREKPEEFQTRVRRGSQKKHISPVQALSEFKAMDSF
Briefly: co-immunoprecipitation from cotransfected HEK293T cells.

Experiment [5] deals with T2, human αN-catenin expressed from plasmid pPNhANCTN in HEK293T cells (human). The experiment in a line: co-immunoprecipitation from cotransfected HEK293T cells, Western blot.
Experiment [6] has the same target. Briefly: co-immunoprecipitation from cotransfected HEK293T cells, Western blot (FIG. 14). A general note: A western blot detects proteins with antibodies after separation by electrophoresis.
Experiment [7] addresses T1, human αN-catenin fused to the GAL4-DBD in pGBT9 (plasmid pGBT9ANCTN) (human). The experiment in a line: yeast two-hybrid, HIS3 and LacZ reporters.
Experiment [8] has the same target. Briefly: yeast two-hybrid, strain Y190 (FIG. 16).
For experiment [9] the target is unchanged. The experiment in a line: yeast two-hybrid.

Results are given in words; binding and its absence hold for the method and conditions named. For some assays here: In cells and extracts the contact can be indirect. Some results given as binding are weak or reduced against the parent protein; the word gives no strength. Sequences can lack the tags named with a protein.

B1: ANC-2H01 initial two-hybrid clone (part of ANC-2H01 fused to the GAL4-AD, plasmid pGAD10ANC2H01) (protein, not shown: large carriers)
chain: IADGFNGIFSDHCYSVCSMRQPDLKYFDNKDDDSDTETSNDLPKFADGIKARNRNQNYLVPSPVLRILDHTAFSTEKSADIVICDEECDSPESVNQQTQEESPIEVHTAEDVPIAVEVHAISEDYDIETENNSSESLQDQTDEEPPAKLCKILDKSQALNVTAQQKWPLLRANSSGLYKCELCEFNSKYFSDLKQHMILKHKRTDSNVCRVCKESFSTNMLLIEHAKLHEEDPYICKYCDYKTVIFENLSQHIADTHFSDHLYWCEQCDVQFSSSSELYLHFQEHSCDEQYLCQFCEHETNDPEDLHSHVVNEHACKLIELSDKYNNGEHGQYSLLSKITFDKCKNFFVCQVCGFRSRLHTNVNRHVAIEHTKIFPHVCDDCGKGFSSMLEYCKHLNSHLSEGIYLCQYCEYSTGQIEDLKIHLDFKHSADLPHKCSDCLMRFGNERELISHLPVHETT
For the molecule B1, the binding entry in [1], in [2] and in experiment [3] was “binds” each time.

B2: about full-length ANC-2H01 fused to the GAL4-AD (plasmid pGAD424ANC-2H01-FL) (protein, not shown: large carriers)
chain: MNEYPKKRKRKTLHPSRYSDSSGISRIADGFNGIFSDHCYSVCSMRQPDLKYFDNKDDDSDTETSNDLPKFADGIKARNRNQNYLVPSPVLRILDHTAFSTEKSADIVICDEECDSPESVNQQTQEESPIEVHTAEDVPIAVEVHAISEDYDIETENNSSESLQDQTDEEPPAKLCKILDKSQALNVTAQQKWPLLRANSSGLYKCELCEFNSKYFSDLKQHMILKHKRTDSNVCRVCKESFSTNMLLIEHAKLHEEDPYICKYCDYKTVIFENLSQHIADTHFSDHLYWCEQCDVQFSSSSELYLHFQEHSCDEQYLCQFCEHETNDPEDLHSHVVNEHACKLIELSDKYNNGEHGQYSLLSKITFDKCKNFFVCQVCGFRSRLHTNVNRHVAIEHTKIFPHVCDDCGKGFSSMLEYCKHLNSHLSEGIYLCQYCEYSTGQIEDLKIHLDFKHSADLPHKCSDCLMRFGNERELISHLPVHETT
As for B2, the binding result in experiment [3] is “binds”.

B3: E-tagged full-length ANC-2H01 protein (expression plasmid pEFBOSANC-2H01E), expressed in HEK293T cells (protein, not shown: small tags and cut ends)
chain: B2 chain
On to B3, for which the binding result in [4], in experiment [5] and in experiment [6] was “binds” throughout.

B4: zinc finger domain of ANC-2H01 fused to the GAL4-AD (plasmid pGAD424ANC-2H01-ZF) (protein, not shown: large carriers)
chain: LYKCELCEFNSKYFSDLKQHMILKHKRTDSNVCRVCKESFSTNMLLIEHAKLHEEDPYICKYCDYKTVIFENLSQHIADTHFSDHLYWCEQCDVQFSSSSELYLHFQEHSCDEQYLCQFCEHETNDPEDLHSHVVNEHACKLIELSDKYNNGEHGQYSLLSKITFDKCKNFFVCQVCGFRSRLHTNVNRHVAIEHTKIFPHVCDDCGKGFSSMLEYCKHLNSHLSEGIYLCQYCEYSTGQIEDLKIHLDFKHSADLPHKCSDCLMRFGNERELISHLPVHETT
Consider B4, for which, in experiment [7], the binding entry is reported as “binds”.

B5: zinc fingers 4 to 9 of ANC-2H01 fused to the GAL4-AD (plasmid pACT2ANC2H01ZF4-9) (protein, not shown: large carriers)
chain: LYWCEQCDVQFSSSSELYLHFQEHSCDEQYLCQFCEHETNDPEDLHSHVVNEHACKLIELSDKYNNGEHGQYSLLSKITFDKCKNFFVCQVCGFRSRLHTNVNRHVAIEHTKIFPHVCDDCGKGFSSMLEYCKHLNSHLSEGIYLCQYCEYSTGQIEDLKIHLDFKHSADLPHKCSDCLMRFGNERELISHLPVHETT
Consider B5, for which, in [8], the binding entry is listed as “binds”.

B6: zinc fingers 6 to 9 of ANC-2H01 fused to the GAL4-AD (plasmid pACT2ANC2H01ZF6-9) (protein, not shown: large carriers)
chain: KNFFVCQVCGFRSRLHTNVNRHVAIEHTKIFPHVCDDCGKGFSSMLEYCKHLNSHLSEGIYLCQYCEYSTGQIEDLKIHLDFKHSADLPHKCSDCLMRFGNERELISHLPVHETT
As for B6, the binding result in experiment [8] and in experiment [9] was “binds” throughout.
